# Measured values taken from the supplement of paper PMC8732350.
# Where “and” joins values, the source holds several entries; their conditions need not be identical. Equal entries are not always repeated. Structures can show the parent of a compound that is named as a salt. ± gives the standard deviation of the averaged measurements. The list shows a part of the results. Most values lie within the scatter of the assay; repeated measurements hardly agree.
# Test system: A549
# Assay: surface PD-L1 immunofluorescence intensity relative to IFN-gamma-only control (ratio); higher = more PD-L1 expression
# Conditions: 10 µM; exposure time 24 h; IFN-gamma 100 ng/mL
row,SMILES,surface PD-L1 immunofluorescence intensity
1,CCCC[C@@H](C=O)NC(=O)[C@H](CC(C)C)NC(=O)OCc1ccccc1 [Calpeptin],0.935 ± 0.14
2,Cc1ccc(NC(=O)c2ccc(CN3CCN(C)CC3)cc2)cc1Nc1nc(-c2cccnc2)cs1 [Masitinib (AB1010)],0.876
3,COc1nc(C)nc(Cl)c1NC1=NCCN1 [Moxonidine],1
4,COc1nc(C)nc(Cl)c1NC1=NCCN1 [Moxonidine hydrochloride],0.958
5,CCN(CC)CCNC(=O)c1cc(S(C)(=O)=O)ccc1OC [Tiapride hydrochloride],0.972
6,O=C(CCCN1CC=C(n2c(=O)[nH]c3ccccc32)CC1)c1ccc(F)cc1 [Droperidol],1
7,Cc1nc2c(c(=O)[nH]1)CSCC2,0.939
8,CCCCCCCC/C=C\CCCCCCCC(=O)N[C@@H](CO)Cc1ccc(O)cc1,1.04
9,C#CCN(C)Cc1ccccc1 [Pargyline hydrochloride],0.993
10,COc1ccc2cc(CCC(C)=O)ccc2c1 [Nabumetone],1.05
11,Cc1cccc(/C=C/c2ccccc2)n1,1.01
12,CCn1cc(C(=O)O)c(=O)c2ccc(C)nc21 [Nalidixic acid sodium salt],1.09
13,COc1ccc(-c2oc3c(CC=C(C)C)c(O[C@@H]4O[C@H](CO)[C@@H](O)[C@H](O)[C@H]4O)cc(O)c3c(=O)c2O[C@@H]2O[C@@H](C)[C@H](O)[C@@H](O)[C@H]2O)cc1 [Icariin],1.01
14,Cc1cc(C)cc(C(=O)N(C)[C@H](Cc2ccc(-c3ccccc3)cc2)C(=O)N[C@@H](Cc2c[nH]c3ccccc23)C(=O)O)c1,0.986
15,Nc1ccc(S(=O)(=O)c2ccc(N)cc2)cc1 [Dapsone],0.867
16,OCCN1CCN(CCCN2c3ccccc3Sc3ccc(Cl)cc32)CC1 [Perphenazine],0.894
17,CN(C)CCc1c[nH]c2ccc(Cn3cncn3)cc12 [Rizatriptan Benzoate (Maxalt)],1.06
18,CC1(C)OC(=O)NC1=O [Dimethadione],1.01
19,N=C(N)NCC1COC2(CCCCC2)O1 (stereo unspecified) [Guanadrel sulfate],0.985
20,N[C@@H](C(=O)O)c1ccc(C(=O)O)c(C(=O)O)c1,1.04
21,Fc1ccc(-c2nc3n(c2-c2ccncc2)CCS3)cc1,0.868
22,CCC[C@H](N[C@@H](C)C(=O)N1[C@H](C(=O)O)C[C@@H]2CCCC[C@@H]21)C(=O)OCC [Perindopril],1.01
23,CCC[C@H](N[C@@H](C)C(=O)N1[C@H](C(=O)O)C[C@@H]2CCCC[C@@H]21)C(=O)OCC [Perindopril Erbumine (Aceon)],0.936
24,Nc1ccc(C(=O)NCC(=O)O)cc1 [Aminohippuric acid],1.06
25,COc1ccc(NS(=O)(=O)c2ccc(N)cc2)nn1 [Sulfamethoxypyridazine],1.03
26,NC(C(=O)O)c1cc(O)cc(O)c1 (racemic),1.1

row,SMILES,surface PD-L1 immunofluorescence intensity
1,CC(=O)Oc1cccc2c1C(=O)c1c(OC(C)=O)cc(C(=O)O)cc1C2=O [Diacerein],1.13
2,"O=c1oc(Cl)c(Cl)c2ccccc12 [3,4-Dichloroisocoumarin]",1.14
3,N[C@H]1C(O)O[C@H](CO)[C@@H](O)[C@@H]1O (stereo partly specified) [Glucosamine HCl],1.01
4,C=C1C[C@H]2[C@@H]3C=C(C)C4=CC(=O)CC[C@]4(C)[C@H]3CC[C@]2(C)[C@@]1(OC(C)=O)C(C)=O [Melengestrol acetate],0.884
5,CC1=CC(=O)NS(=O)(=O)O1 [Acesulfame Potassium],1.04
6,"CCCC(=O)Nc1ncnc2c1ncn2[C@@H]1O[C@@H]2COP(=O)(O)O[C@H]2[C@H]1OC(=O)CCC [Dibutyryl-cAMP, sodium salt]",0.954
7,CCCC(=O)Nc1ncnc2c1ncn2[C@@H]1O[C@@H]2COP(=O)(O)O[C@H]2[C@H]1OC(=O)CCC [Bucladesine sodium salt],0.974
8,CN(C)CCC[C@@]1(c2ccc(F)cc2)OCc2cc(C#N)ccc21 [Escitalopram],0.923
9,CN1CCCC(n2nc(Cc3ccc(Cl)cc3)c3ccccc3c2=O)CC1 (stereo unspecified) [Azelastine HCl],1.09
10,O=c1oc(-c2ccc(C(F)(F)F)cc2)nn1Cc1cc(Cl)ccc1O,0.92
11,COc1ccc(S(=O)(=O)N2c3ccc(Cl)cc3[C@](O)(c3ccccc3Cl)[C@@H]2C(=O)N2CCC[C@H]2C(N)=O)cc1OC,1.01
12,CN1CCCCC1CCN1c2ccccc2Sc2ccc([S+](C)[O-])cc21 (stereo unspecified) [Mesoridazine besylate],0.976
13,O=S(=O)(c1ccccc1)c1cnc2c(N3CCNCC3)cccc2c1,0.981
14,Cc1c(C(=O)NC2CCCCC2)sc2nc3ccc(N)cc3n12,1.05
15,O=C(O[C@H]1CN2CCC1CC2)N1CCc2ccccc2[C@@H]1c1ccccc1 [Solifenacin succinate],0.997
16,NC(=O)N/N=C/c1ccc([N+](=O)[O-])o1 [Nitrofural],1.04
17,"Nc1nc2c(nc(Br)n2[C@@H]2O[C@@H]3COP(=O)(O)O[C@H]3[C@H]2O)c(=O)[nH]1 [8-Bromo-cGMP, sodium salt]",0.974
18,CO[C@@H]1[C@@H](OC(N)=O)[C@@H](O)[C@H](Oc2ccc3c(O)c(NC(=O)c4ccc(O)c(CC=C(C)C)c4)c(=O)oc3c2C)OC1(C)C [Novobiocin sodium salt],0.898
19,CCN1CCN(C(=O)N[C@@H](C(=O)N[C@@H]2C(=O)N3[C@@H]2SC(C)(C)[C@@H]3C(=O)O)c2ccccc2)C(=O)C1=O [Piperacillin sodium salt],0.953
20,CC(C)NCCN(C(C)C)S(=O)(=O)c1ccc(Cl)cc1Cl,0.981
21,FC(F)(F)c1ccc(/C=C/c2nc(COc3ccc(CCCCn4ccnn4)cc3)co2)cc1 [Mubritinib (TAK 165)],1.06
22,O=C1c2c(O)cc(O)cc2OC(c2ccc(O)c(O)c2)C1O (stereo unspecified) [Taxifolin (Dihydroquercetin)],0.883
23,COc1ccc(Nc2nccc(NCCO)n2)cc1 [Cardiogenol C hydrochloride],0.956
24,CN(C)CCCOc1nn(Cc2ccccc2)c2ccccc12 [Benzydamine hydrochloride],1.01
25,C#C[C@]1(O)CC[C@H]2[C@@H]3[C@H](C)CC4=C(CCC(=O)C4)[C@H]3CC[C@@]21C [Tibolone],0.906
26,Cn1cc(C(=O)OCC2CCN(CCNS(C)(=O)=O)CC2)c2ccccc21,0.982

# Part of the list above, with bars between the fields:
row | SMILES | surface PD-L1 immunofluorescence intensity
10 | O=c1oc(-c2ccc(C(F)(F)F)cc2)nn1Cc1cc(Cl)ccc1O | 0.92
11 | COc1ccc(S(=O)(=O)N2c3ccc(Cl)cc3[C@](O)(c3ccccc3Cl)[C@@H]2C(=O)N2CCC[C@H]2C(N)=O)cc1OC | 1.01
12 | CN1CCCCC1CCN1c2ccccc2Sc2ccc([S+](C)[O-])cc21 (stereo unspecified) [Mesoridazine besylate] | 0.976
13 | O=S(=O)(c1ccccc1)c1cnc2c(N3CCNCC3)cccc2c1 | 0.981

# Rewritten tab-delimited: part of the list above.
row	SMILES	surface PD-L1 immunofluorescence intensity
20	CC(C)NCCN(C(C)C)S(=O)(=O)c1ccc(Cl)cc1Cl	0.981
21	FC(F)(F)c1ccc(/C=C/c2nc(COc3ccc(CCCCn4ccnn4)cc3)co2)cc1 [Mubritinib (TAK 165)]	1.06

# Remaining list, next part

row,SMILES,surface PD-L1 immunofluorescence intensity
1,OC[C@@H](O)[C@@H](O)[C@H](O)[C@@H](O)CO [Sorbitol (Glucitol)],0.832
2,CCCCC(=O)O[C@]1(C(=O)CO)[C@@H](C)C[C@H]2[C@@H]3CCC4=CC(=O)C=C[C@]4(C)[C@@]3(F)[C@@H](O)C[C@@]21C [Betamethasone valerate (Betnovate)],0.839
3,CC(=O)OCC(=O)[C@@]1(O)CC[C@H]2[C@@H]3CCC4=CC(=O)CC[C@]4(C)[C@H]3C(=O)C[C@@]21C [Cortisone acetate (Cortone)],0.999
4,CC(=O)OCC(=O)[C@@]1(O)CC[C@H]2[C@@H]3CCC4=CC(=O)C=C[C@]4(C)[C@@]3(F)[C@@H](O)C[C@@]21C [Isoflupredone acetate],0.761
5,CN1CCN(c2cccc(Nc3nc4c(-c5ccc(S(C)(=O)=O)cc5)cccn4n3)c2)CC1,0.732 ± 0.035
6,COc1cc2nc(N3CCN(C(=O)C4CCCO4)CC3)nc(N)c2cc1OC (stereo unspecified) [Terazosin hydrochloride],1.05 ± 0.048
7,CC(C)(O)CC[C@@H](O)[C@](C)(O)[C@H]1CC[C@@]2(O)C3=CC(=O)[C@@H]4C[C@@H](O)[C@@H](O)C[C@]4(C)[C@H]3CC[C@]12C [20-Hydroxyecdysone],1.01
8,Nc1ccc(S(=O)(=O)Nc2ccc(Cl)nn2)cc1 [Sulfachloropyridazine],1.09
9,Cc1ccc(/C=N/NC(=O)c2ccccc2Oc2ccccc2)o1,1.03 and 1.06
10,C[C@H](NC(=O)[C@@H]1CCCN1C(=O)[C@@H]1CCCN1C(=O)[C@@H](O)[C@H](N)Cc1ccccc1)C(N)=O [Apstatin],1.01
11,COc1cc(C)c(/C=C/C(C)=C/C=C/C(C)=C/C(=O)O)c(C)c1C [Acitretin],1.03 ± 0.08
12,CC(C)(F)C[C@H](N[C@@H](c1ccc(-c2ccc(S(C)(=O)=O)cc2)cc1)C(F)(F)F)C(=O)NC1(C#N)CC1 [Odanacatib (MK 0822)],1.02
13,NS(=O)(=O)c1cc2c(cc1Cl)NCNS2(=O)=O [Hydrochlorothiazide],0.87
14,O=C(NC1CCOCC1)c1ccc(-c2cc(-c3c[nH]nc3-c3ccccn3)ccn2)cc1,1
15,O=C1C(=O)N(Cc2ccc(Cl)c(Cl)c2)c2ccccc21 [Apoptosis Activator 2],0.976
16,COc1cc(/C=C/C(=O)O)ccc1O [Fumalic acid (Ferulic acid)],1.07
17,C[N+]1(C)CCC(=C(c2ccccc2)c2ccccc2)CC1 [Diphemanil methylsulfate],0.85
18,CN(C)CCc1c[nH]c2ccc(C[C@H]3COC(=O)N3)cc12 [Zolmitriptan (Zomig)],0.859
19,CN(C)CCC=C1c2ccccc2C=Cc2ccccc21 [Cyclobenzaprine hydrochloride],0.909
20,O=C1c2cccc(O)c2C(=O)c2c(O)cc(CO)cc21 [Aloe-emodin],1.09
21,CC(C)CC(NC(=O)OCC1c2ccccc2-c2ccccc21)C(=O)O (stereo unspecified),1.05
22,CNNCc1ccc(C(=O)NC(C)C)cc1 [Procarbazine hydrochloride],0.99
23,NC(=O)c1ncn([C@@H]2O[C@H](CO)[C@@H](O)[C@H]2O)c1N [Acadesine],1.04 ± 0.03
24,CC1=C(/C=C/C(C)=C/C=C/C(C)=C/C(=O)Nc2ccc(O)cc2)C(C)(C)CCC1 [Fenretinide],1.23
